From ChEMBL document CHEMBL3988442, “University of Dundee, Small-Polar-MMV Screening Library” (2021).

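Viability assay of Plasmodium falciparum sporozoites; the read-out is not stated. The concentration is filed as 10 mM, unlikely as a test dose, so the dose is not known. Direction is inferred from retests: higher values go with lower viability. Strong results were mostly tested again. About 34,000 compounds were tested under these conditions; 0.84% (about 280) showed 50% or more at least once.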

Values are the deposited “Percent Effect”, in %.
The controls that fix the scale are not given in the record; negative values are as filed.
This is an unselected part of the compounds tested.

O=C1CCCCN1CCCC(=O)N1CCC2(CC1)[C@H](O)C[C@@H]2O gave 6.308%.
CCN1CCN(c2ccc(F)cc2C(C)NCc2ccncc2)CC1 (centres unmarked) gave 4.383%.
COc1ccc(OCCCNCCn2cccn2)cc1 gave 0.2692%.
CC(=O)N1CCC(c2n[nH]c3nccnc23)CC1 gave 0.5021%.
O=C(O)C(F)(F)F.[H][C@@]12CCN(CC3CCOCC3)[C@@]1([H])CCN2C(=O)c1cccc(F)c1 gave 2.691%.
Cc1ccc(CNC(=O)CN2CCCCC2Cn2cncn2)s1 (centres unmarked) gave 11.3%.
CC(C)N1CCC(c2cc(C(F)(F)F)n3ccnc3n2)CC1 gave 16.07%.
CCOc1ccccc1CNC1CCCN(Cc2noc(C)n2)C1 (centres unmarked) gave 4.896%.
CC(C)CNC(=O)c1ccc(NC(=O)NCC2CC2)cc1Cl gave -7.794%.
COCC(c1cccc(C(F)(F)F)c1)N(C)C(=O)c1ccoc1 (centres unmarked) gave -2.814%.
OC1CCN(CCCn2ccnc2-c2c[nH]cn2)CC1 gave -12.46%.
COCCN1CCC2(CCN(C(=O)c3ccc(F)cc3)CC2)C1=O gave 6.318%.
CCCC(=O)N1CCC(Cc2ccccc2-c2ccccc2)(C(N)=O)C1 (centres unmarked) gave 16.84%.
COc1ccc(N2CCN(Cc3nc(CSC)no3)C(C)C2=O)cc1 (centres unmarked) gave 0.8953%.
COc1ccc(C2(NCc3c(C)nc4c(C)cccn34)CCCC2)cc1.O=C(O)CC(O)(CC(=O)O)C(=O)O gave 0.76%.
O=C(NCCCn1cncn1)NCC(c1ccccc1)N1CCCC1 (centres unmarked) gave 7.861%.
COc1c(C2CCCN2Cc2csc(C(C)C)n2)c(C)nn1C (centres unmarked) gave -2.944%.
CC(C)=CCN1CCOC(Cn2cccn2)C1 (centres unmarked) gave 0.8103%.
Cc1cccc(SC2CCN(C(=O)CCCS(N)(=O)=O)CC2)c1 gave -5.22%.
O=C(O)C(F)(F)F.[H][C@@]12CCN(C(=O)C(C)C)CC[C@]1(C(=O)N1CCOCC1)CCN2C gave 12.17%.
O=C(O)C(F)(F)F.[H][C@@]12OCCN(Cc3ccc(F)cc3)[C@@]1([H])CC[C@H]2OC gave 3.71%.
O=C(c1cnc(-c2cccs2)s1)N1CCCN2CCCC2C1 (centres unmarked) gave 0.64%.
Cc1ccc(OCCN2CCN(Cc3cnn(CCO)c3)CC2)cc1 gave -8.668%.
Cc1cn2c(n1)CCC(NC(=O)CCn1ccnn1)C2 (centres unmarked) gave 3.504%.
CS(=O)(=O)NCCCN1CCCC1Cc1ccccc1 (centres unmarked) gave -4.523%.
O=C(O)C(F)(F)F.O=C(O)C(F)(F)F.[H][C@@]12C[C@@H](Oc3cncnc3)CN1CCN(Cc1cccc(C)n1)C2 gave 0.3503%.
[H][C@@]12CCN(S(=O)(=O)c3ccccc3C)C[C@]1(C(=O)NC)CCO2 gave -13.8%.
Cc1cc(C(=O)N2CCCC(n3cncn3)C2)c(C)n1C1CC1 (centres unmarked) gave -21.48%.
CC(=O)Nc1nc(CN2CCn3c(C)nnc3C2)cs1 gave 7.769%.
CN(CC(N)=O)S(=O)(=O)c1ccc(F)cc1Cl gave -4.771%.
Cc1ccc(Sc2nccn(C)c2=O)cc1 gave -9.257%.
COCCN1CCc2cc(C(=O)O)c(NCC3CC3)nc2CC1.O=C(O)C(F)(F)F.O=C(O)C(F)(F)F gave 22.19%.
Cc1nc(C2CCCN(C(=O)c3cc(-c4ccccc4)[nH]n3)C2)no1 (centres unmarked) gave -8.713%.
CCOc1ncccc1CNC(=O)NC1CCOc2ccccc21 (centres unmarked) gave 1.001%.
CC(C)C(=O)NC1CCCN(C(=O)c2ccc(O)c(Cl)c2)C1 (centres unmarked) gave 7.942%.
CCc1nnc(CN2CCN(C(=O)c3ccccn3)CC2)o1 gave -12.95%.
CCOCCn1nc(C)cc1C(=O)N1CCN(C(C)C)C(CC)C1 (centres unmarked) gave -3.882%.
NC(=O)CN1CCCC1c1csc(Nc2cnccn2)n1 (centres unmarked) gave 5.188%.
CCc1ncnc(N(C)CC2CCCCO2)c1F (centres unmarked) gave -8.324%.
CCOC(=O)CNC(=O)NCc1cccn1Cc1cccc(C)c1 gave 3.542%.
Cc1nc(C2CCCN2C(=O)Cn2cncn2)no1 (centres unmarked) gave -0.5114%.
CC(=O)NCCNC(=O)CN1CCCC(Cn2cncn2)C1 (centres unmarked) gave 3.549%.
FC(F)COc1ccccc1NCc1nnsc1Cl gave -12.13%.
Cc1nn(CC(C)C)c(N(C)C)c1CNCc1ccc(CO)c(F)c1 gave 3.678%.
CC(C)C(=O)N1CCC2(CC1)COCCN2Cc1ccc(F)cc1.O=C(O)C(F)(F)F gave -6.302%.
O=C1CC2(CCN(S(=O)(=O)c3cccs3)C2)CN1c1ccccc1 (centres unmarked) gave 0.03409%.
O=C(NC[C@H]1CCCC[C@H]1O)c1ccc2nc(-c3ccco3)[nH]c2c1 gave -20.38%.
O=S(=O)(CCN1CCOC(Cn2cncn2)C1)c1ccccc1 (centres unmarked) gave -2.768%.
O=C(O)C(F)(F)F.O=C(O)C(F)(F)F.[H][C@]12CC(=O)N(Cc3cccc(C)n3)[C@@]1([H])CCN2Cc1cccs1 gave 7.071%.
Cc1cc(CNC(=O)C2CCCCN2C(=O)OC(C)(C)C)no1 (centres unmarked) gave -7.612%.

Once more, the final 5:

compound,Percent Effect
O=C1CC2(CCN(S(=O)(=O)c3cccs3)C2)CN1c1ccccc1 (centres unmarked),0.03409
O=C(NC[C@H]1CCCC[C@H]1O)c1ccc2nc(-c3ccco3)[nH]c2c1,-20.38
O=S(=O)(CCN1CCOC(Cn2cncn2)C1)c1ccccc1 (centres unmarked),-2.768
O=C(O)C(F)(F)F.O=C(O)C(F)(F)F.[H][C@]12CC(=O)N(Cc3cccc(C)n3)[C@@]1([H])CCN2Cc1cccs1,7.071
Cc1cc(CNC(=O)C2CCCCN2C(=O)OC(C)(C)C)no1 (centres unmarked),-7.612